Test results: publication PMC10566725
These are yes or no findings as the source states them, for the method shown. Binding seen in cells or lysates may run through a third protein. Some results given as binding are weak or reduced against the parent protein; the word gives no strength. Sequences can lack the tags named with a protein.

T1: 3xHA::mGL::FLR-4 (C. elegans) (UniProt Q9NLA1)
T1 sequence: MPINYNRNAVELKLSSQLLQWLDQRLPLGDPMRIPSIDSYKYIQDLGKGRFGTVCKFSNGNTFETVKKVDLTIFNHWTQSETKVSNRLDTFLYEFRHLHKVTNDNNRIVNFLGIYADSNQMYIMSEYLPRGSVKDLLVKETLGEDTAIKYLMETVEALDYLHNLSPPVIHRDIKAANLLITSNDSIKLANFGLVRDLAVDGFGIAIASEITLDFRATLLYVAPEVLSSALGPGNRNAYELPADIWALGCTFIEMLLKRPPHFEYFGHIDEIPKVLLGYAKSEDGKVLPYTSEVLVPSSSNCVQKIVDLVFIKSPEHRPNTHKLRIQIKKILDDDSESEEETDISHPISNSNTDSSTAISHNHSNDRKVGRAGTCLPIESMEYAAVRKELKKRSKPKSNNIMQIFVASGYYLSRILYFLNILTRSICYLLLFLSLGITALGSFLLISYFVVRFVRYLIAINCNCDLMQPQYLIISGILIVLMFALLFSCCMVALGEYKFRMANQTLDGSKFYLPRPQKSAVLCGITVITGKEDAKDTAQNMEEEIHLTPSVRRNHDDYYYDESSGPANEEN

T2: mKate2::3xFLAG::DRL-1 (C. elegans) (UniProt Q86ME2)
T2 sequence: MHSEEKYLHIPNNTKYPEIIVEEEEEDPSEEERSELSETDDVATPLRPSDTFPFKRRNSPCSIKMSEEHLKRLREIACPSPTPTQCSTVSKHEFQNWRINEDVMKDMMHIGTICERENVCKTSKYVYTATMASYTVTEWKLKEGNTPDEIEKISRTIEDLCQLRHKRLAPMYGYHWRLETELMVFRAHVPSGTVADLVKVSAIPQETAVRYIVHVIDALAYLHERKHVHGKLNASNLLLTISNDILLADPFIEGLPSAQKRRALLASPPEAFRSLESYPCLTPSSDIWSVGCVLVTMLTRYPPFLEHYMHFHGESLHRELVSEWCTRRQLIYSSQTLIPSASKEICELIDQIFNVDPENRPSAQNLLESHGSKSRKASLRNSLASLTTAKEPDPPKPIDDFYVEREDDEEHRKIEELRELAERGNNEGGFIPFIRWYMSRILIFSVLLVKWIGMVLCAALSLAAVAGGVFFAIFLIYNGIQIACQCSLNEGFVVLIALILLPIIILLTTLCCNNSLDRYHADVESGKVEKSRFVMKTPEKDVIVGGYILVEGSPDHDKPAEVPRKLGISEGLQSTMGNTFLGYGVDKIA

B1: mKate2::3xFLAG::DRL-1 (protein, UniProt Q86ME2 1-589)
chain: T2 sequence
B2: 3xHA::mGL::FLR-4 (protein, UniProt Q9NLA1 1-570)
chain: T1 sequence

Key:
[1] = biological target: T1, 3xHA::mGL::FLR-4 (C. elegans); experiment: co-IP; lysate of approximately 50,000 day 1 adults of strain DLS781 split in 3 parts: mock IP (no antibody), anti-HA IP (3F10) or anti-FLAG IP (M2) on Protein G Dynabeads; western blot with anti-FLAG or anti-HA
[2] = biological target: T2, mKate2::3xFLAG::DRL-1 (C. elegans); experiment: as above

Binder | binding [1] | binding [2]
B1 | binds | –
B2 | – | binds
